This data set deals with His-MphR (Acinetobacter calcoaceticus PHEA-2) (UniProt F0KIC5). In words: EMSA. The note with it: 5-50 nM His-MphR, 2.5 nM DNA, poly(dI-dC), no phenol stated, 20 mM Tris-HCl pH 7.5, 50 mM KCl, 6 mM DTT, 0.5% Tween-20, 0.05 ug/ul poly(dI-dC), 10 ul, 20 min at 30 C, 8% PAGE in 0.5x TBE, recombinant protein, residues 1-556, protein details: His tag (pET-28), label: 5' IRD800 (M13 primers), probe letters rebuilt from the primers and the genome, part of a longer molecule. For orientation: A gel shift assay detects complexes by their altered migration in electrophoresis.

The exact form of at least one protein or probe is not confirmed.

Take “GTACTCCATCAAGACATGGTCTTGAAATTGATGAATGCTCCTTGCTCTCGCTATAAGCTTTACAAAAGCTATGCCAACTTTATTTTTATTATTAAAAACAATTAATTAAAATTTTTATGGAAAGTAAGGTATTTTTAAAATTCACTATTTCATGAATTTTTTTGAATGGTGAAATAGAGATATTCATGATTTGATGAATAGGGTCGTAAAAATTTCTTTTTAGATTGTTTGAGGCTTTAAATGGAGAGATTTAGAAATACTTTTTTAGTATGAAGTTATGTCTTTAAGATACTAGGACATTTATCTGGTTCTTCGATAAGATGAGATAAAACCCAAATGTGTTTAATGGATTAAAACAGATCACTCATGGCTCGA (double strand) [P380]”: the binding result is recorded as “binds”.

The values are drawn from article PMC3063778.
